Assay results published in the supplement of paper PMC10849652.
The list shows a part of the results.

Sequences of proteins named here, by UniProt entry; tags and fusion partners are left off. A change or cut given only in a name is not applied to a line headed by its entry.
UniProt Q9NVX2: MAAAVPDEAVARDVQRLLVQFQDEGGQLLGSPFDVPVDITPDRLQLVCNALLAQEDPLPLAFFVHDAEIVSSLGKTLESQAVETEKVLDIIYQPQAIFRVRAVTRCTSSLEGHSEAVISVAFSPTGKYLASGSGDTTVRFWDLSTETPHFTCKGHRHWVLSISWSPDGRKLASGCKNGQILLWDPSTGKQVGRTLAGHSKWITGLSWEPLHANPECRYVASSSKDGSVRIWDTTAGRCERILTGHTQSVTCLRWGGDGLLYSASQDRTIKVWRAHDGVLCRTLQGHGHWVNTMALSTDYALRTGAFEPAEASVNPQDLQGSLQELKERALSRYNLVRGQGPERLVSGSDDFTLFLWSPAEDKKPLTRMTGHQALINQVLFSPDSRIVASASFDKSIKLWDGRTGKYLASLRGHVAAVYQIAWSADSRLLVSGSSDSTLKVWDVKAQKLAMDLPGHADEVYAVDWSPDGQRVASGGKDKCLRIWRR
UniProt Q86X76: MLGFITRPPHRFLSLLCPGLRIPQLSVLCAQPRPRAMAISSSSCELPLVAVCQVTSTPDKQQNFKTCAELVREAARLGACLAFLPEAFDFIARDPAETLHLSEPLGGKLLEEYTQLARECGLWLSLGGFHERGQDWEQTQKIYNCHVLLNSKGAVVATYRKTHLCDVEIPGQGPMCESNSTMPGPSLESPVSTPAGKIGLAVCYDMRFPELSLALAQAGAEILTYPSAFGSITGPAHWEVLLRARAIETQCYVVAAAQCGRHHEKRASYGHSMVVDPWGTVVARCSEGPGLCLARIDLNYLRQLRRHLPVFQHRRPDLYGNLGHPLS
UniProt Q92636: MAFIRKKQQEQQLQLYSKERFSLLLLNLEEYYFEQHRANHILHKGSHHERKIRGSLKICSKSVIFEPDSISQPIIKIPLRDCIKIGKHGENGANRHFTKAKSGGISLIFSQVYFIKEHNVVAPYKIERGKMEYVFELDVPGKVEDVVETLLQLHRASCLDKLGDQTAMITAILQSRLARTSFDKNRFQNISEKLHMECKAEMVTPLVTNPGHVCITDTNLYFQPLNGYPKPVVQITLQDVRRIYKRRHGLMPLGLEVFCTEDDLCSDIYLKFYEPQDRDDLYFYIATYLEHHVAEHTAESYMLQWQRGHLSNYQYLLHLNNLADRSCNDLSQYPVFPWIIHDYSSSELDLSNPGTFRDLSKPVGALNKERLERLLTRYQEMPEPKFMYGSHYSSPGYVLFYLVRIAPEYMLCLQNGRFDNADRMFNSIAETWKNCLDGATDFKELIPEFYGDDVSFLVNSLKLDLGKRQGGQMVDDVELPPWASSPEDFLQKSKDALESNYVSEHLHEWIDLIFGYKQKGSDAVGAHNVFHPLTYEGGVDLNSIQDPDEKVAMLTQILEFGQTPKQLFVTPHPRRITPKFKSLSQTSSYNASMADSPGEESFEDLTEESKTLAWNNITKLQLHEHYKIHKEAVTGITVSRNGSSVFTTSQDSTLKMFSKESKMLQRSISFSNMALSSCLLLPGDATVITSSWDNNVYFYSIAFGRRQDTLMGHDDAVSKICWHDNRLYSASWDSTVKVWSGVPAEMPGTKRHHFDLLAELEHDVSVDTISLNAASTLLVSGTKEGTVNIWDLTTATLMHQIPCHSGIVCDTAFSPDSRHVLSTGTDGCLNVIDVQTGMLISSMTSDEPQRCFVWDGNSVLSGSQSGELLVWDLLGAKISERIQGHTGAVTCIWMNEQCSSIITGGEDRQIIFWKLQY
UniProt P23511, whole entry, looked up: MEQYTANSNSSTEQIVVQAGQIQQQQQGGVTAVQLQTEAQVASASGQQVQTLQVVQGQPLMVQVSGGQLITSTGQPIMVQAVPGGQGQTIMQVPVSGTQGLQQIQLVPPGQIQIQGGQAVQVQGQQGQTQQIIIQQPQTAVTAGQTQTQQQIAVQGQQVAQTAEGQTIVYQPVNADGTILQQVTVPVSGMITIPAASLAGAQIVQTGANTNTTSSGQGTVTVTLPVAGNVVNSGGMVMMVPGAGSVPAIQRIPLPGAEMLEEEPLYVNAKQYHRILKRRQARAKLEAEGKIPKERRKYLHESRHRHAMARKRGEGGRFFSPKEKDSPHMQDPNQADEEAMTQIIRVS
UniProt Q5JS37: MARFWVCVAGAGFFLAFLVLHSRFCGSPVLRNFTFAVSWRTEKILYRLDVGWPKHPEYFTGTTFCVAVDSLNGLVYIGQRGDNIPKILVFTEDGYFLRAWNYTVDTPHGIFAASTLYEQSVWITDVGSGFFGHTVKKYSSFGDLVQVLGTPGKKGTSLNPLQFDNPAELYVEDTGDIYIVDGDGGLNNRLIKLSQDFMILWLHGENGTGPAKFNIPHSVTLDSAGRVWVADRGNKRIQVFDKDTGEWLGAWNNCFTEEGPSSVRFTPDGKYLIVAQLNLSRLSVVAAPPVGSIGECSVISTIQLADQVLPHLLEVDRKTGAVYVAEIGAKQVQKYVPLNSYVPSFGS
UniProt Q15155: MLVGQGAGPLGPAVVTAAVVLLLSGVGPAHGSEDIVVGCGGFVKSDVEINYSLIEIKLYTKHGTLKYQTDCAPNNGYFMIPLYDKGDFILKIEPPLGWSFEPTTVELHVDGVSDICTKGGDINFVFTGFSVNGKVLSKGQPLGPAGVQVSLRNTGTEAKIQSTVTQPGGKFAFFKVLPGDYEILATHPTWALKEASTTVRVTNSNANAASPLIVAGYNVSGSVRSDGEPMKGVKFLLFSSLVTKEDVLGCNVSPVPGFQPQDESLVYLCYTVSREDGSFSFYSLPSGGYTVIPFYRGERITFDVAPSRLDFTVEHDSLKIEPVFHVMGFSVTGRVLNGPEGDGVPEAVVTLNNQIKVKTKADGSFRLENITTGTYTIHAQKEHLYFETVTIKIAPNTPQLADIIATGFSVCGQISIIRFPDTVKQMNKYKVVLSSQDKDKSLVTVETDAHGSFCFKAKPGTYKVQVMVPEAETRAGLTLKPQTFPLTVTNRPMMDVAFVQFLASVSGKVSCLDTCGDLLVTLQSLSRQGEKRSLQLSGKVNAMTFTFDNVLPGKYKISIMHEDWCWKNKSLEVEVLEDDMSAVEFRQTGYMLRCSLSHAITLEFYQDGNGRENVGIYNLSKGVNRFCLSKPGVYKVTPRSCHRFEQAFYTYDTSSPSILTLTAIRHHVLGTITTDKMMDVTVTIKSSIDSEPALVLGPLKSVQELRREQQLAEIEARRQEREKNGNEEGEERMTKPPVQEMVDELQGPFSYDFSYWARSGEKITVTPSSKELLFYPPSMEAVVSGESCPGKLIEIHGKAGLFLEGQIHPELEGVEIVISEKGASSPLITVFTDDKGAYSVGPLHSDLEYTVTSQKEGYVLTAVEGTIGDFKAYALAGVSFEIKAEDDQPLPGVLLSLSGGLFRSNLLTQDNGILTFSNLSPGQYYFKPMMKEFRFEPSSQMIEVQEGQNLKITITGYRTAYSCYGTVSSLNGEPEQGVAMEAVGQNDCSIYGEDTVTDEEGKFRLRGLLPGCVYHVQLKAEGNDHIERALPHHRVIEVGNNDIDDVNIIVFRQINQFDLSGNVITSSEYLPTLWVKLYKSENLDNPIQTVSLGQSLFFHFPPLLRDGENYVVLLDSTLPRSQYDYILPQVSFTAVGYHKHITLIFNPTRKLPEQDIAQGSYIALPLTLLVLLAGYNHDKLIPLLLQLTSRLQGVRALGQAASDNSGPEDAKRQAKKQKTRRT
UniProt Q9NQ35: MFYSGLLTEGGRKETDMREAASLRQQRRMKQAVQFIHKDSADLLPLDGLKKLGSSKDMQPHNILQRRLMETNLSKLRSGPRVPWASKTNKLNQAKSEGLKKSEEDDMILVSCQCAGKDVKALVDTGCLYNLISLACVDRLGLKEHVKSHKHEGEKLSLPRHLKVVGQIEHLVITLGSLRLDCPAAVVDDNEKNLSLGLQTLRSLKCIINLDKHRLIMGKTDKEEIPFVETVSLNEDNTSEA
UniProt Q9HBL8: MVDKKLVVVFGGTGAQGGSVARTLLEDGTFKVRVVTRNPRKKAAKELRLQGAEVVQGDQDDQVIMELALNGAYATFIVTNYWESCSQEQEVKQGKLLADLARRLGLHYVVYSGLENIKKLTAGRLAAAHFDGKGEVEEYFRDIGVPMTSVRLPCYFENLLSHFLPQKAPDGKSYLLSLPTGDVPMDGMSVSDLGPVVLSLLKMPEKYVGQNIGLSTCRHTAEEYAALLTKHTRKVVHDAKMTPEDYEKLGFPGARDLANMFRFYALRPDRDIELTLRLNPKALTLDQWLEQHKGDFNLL
UniProt Q6ZNB6: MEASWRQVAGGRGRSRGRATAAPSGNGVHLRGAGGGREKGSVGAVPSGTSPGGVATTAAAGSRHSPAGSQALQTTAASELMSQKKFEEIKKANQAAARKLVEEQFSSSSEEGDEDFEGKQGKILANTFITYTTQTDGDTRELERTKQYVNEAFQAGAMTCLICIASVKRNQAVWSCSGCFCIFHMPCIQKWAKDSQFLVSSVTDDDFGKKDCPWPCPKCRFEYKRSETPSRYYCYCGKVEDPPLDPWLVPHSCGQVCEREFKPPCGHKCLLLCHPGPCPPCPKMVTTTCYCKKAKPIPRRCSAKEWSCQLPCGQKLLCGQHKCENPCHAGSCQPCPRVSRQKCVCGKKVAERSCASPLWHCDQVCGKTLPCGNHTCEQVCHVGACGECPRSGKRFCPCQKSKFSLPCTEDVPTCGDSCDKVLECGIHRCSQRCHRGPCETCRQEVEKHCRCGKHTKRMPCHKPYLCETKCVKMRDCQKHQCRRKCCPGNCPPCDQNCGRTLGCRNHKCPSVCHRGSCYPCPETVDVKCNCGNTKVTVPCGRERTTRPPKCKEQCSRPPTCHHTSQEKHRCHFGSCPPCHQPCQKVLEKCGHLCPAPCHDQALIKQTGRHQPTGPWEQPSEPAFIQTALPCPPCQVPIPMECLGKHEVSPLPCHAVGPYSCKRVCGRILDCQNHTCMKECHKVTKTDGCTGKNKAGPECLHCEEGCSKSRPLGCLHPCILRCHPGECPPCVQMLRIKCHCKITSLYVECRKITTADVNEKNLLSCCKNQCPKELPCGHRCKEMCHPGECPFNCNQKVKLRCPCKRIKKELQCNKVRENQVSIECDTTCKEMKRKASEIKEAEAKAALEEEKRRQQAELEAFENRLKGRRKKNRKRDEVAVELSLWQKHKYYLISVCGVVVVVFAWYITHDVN
UniProt Q12857, whole entry, looked up: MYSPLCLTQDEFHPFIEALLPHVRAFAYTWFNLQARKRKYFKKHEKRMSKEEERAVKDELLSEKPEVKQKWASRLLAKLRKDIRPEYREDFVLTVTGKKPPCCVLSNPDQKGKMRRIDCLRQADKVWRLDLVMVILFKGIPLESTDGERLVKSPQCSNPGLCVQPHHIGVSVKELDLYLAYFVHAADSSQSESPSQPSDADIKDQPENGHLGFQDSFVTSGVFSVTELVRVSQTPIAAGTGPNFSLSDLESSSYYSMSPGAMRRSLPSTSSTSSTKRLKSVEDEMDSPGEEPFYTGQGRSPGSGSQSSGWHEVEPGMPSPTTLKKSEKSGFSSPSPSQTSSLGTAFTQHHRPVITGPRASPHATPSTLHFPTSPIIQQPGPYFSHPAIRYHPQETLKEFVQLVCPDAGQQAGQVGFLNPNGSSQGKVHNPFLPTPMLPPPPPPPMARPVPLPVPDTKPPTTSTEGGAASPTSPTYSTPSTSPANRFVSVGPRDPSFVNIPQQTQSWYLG
UniProt Q8TD19: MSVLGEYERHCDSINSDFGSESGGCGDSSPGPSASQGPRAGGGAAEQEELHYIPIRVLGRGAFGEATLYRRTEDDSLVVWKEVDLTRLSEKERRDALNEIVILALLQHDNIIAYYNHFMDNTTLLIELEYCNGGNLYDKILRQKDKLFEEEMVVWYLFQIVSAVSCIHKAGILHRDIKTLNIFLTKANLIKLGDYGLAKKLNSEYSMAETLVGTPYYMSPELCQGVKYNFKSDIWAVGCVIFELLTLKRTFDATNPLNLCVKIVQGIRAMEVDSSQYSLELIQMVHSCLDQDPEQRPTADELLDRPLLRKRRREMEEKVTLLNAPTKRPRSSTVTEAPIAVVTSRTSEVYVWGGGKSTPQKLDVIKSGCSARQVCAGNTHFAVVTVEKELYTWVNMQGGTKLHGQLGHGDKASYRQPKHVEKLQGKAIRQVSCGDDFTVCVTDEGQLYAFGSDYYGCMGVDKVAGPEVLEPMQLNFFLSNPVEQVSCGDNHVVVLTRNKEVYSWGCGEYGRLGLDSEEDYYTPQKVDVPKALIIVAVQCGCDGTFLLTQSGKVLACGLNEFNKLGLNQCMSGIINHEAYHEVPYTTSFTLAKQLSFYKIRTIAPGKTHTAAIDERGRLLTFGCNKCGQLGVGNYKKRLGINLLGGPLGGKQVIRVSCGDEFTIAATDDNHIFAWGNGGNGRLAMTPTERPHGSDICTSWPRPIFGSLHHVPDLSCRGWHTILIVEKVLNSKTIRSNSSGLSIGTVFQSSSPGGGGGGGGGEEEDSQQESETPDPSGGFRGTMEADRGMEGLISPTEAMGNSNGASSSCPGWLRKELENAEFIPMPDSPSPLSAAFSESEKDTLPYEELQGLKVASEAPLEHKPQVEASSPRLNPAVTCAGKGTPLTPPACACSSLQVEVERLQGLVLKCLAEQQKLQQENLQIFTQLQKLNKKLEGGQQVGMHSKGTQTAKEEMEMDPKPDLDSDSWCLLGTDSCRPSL

Experiments:
Test in all cases: log2 fold change, soluble protein after heating vs DMSO (PISA); higher = thermal stabilisation; K562 cells, 10 uM, 30 min; active = over 0.2 and 3.5 SD of the protein, either way, in both replicates (recomputed)
[1] = compound: CS(=O)(=O)c1ccc(-c2cnc(N)c(C(=O)Nc3ccccc3)n2)cc1
Procedure, shortened: (§1)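 Soluble protein was defined as the supernatant after 21,000xg for 90 min. It came from K562 cells at 2×10^6 cells/mL given 10 μM compound for 30 min, heated in aliquots for 3 min across 48°C-58°C, pooled, and extracted in PBS with 0.5% NP-40 at 4°C, and was quantified by TMTpro 16plex LC-MS/MS with equalised channel sums. Thermal stability against control samples, from duplicates, is reported as log2 fold change.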

crizotinib = compound: C[C@@H](Oc1cc(-c2cnn(C3CCNCC3)c2)cnc1N)c1c(Cl)ccc(F)c1Cl [crizotinib]
Procedure, shortened: as §1

[2] = compound: C[C@@H]1COCCN1C2=NC(=NC(=C2)C3(CC3)S(=O)(=O)C)C4=C5C=CNC5=CC=C4
Procedure, shortened: as §1

[3] = compound: C[C@H](C1=CC=C(C=C1)C(=O)NC2=C3C=CNC3=NC=C2)N
Procedure, shortened: as §1

duvelisib = compound: C[C@H](Nc1ncnc2nc[nH]c12)c1cc2cccc(Cl)c2c(=O)n1-c1ccccc1 [duvelisib]
Procedure, shortened: as §1

gandotinib = compound: Cc1cc(Nc2cc(CN3CCOCC3)c3nc(C)c(Cc4ccc(Cl)cc4F)n3n2)n[nH]1 [gandotinib]
Procedure, shortened: as §1

tozasertib = compound: Cc1cc(Nc2cc(N3CCN(C)CC3)nc(Sc3ccc(NC(=O)C4CC4)cc3)n2)n[nH]1 [tozasertib]
Procedure, shortened: as §1

[4] = compound: Cc1cc(SCc2sc(-c3ccc(C(F)(F)F)cc3)nc2C)ccc1OCC(=O)O
Procedure, shortened: as §1

doramapimod = compound: Cc1ccc(-n2nc(C(C)(C)C)cc2NC(=O)Nc2ccc(OCCN3CCOCC3)c3ccccc23)cc1 [doramapimod]
Procedure, shortened: as §1

ispinesib = compound: Cc1ccc(C(=O)N(CCCN)[C@@H](c2nc3cc(Cl)ccc3c(=O)n2Cc2ccccc2)C(C)C)cc1 [ispinesib]
Procedure, shortened: as §1

bafetinib = compound: Cc1ccc(NC(=O)c2ccc(CN3CC[C@H](N(C)C)C3)c(C(F)(F)F)c2)cc1Nc1nccc(-c2cncnc2)n1 [bafetinib]
Procedure, shortened: as §1

[5] = compound: Cc1cccc(CC(=O)N2CCc3c2ccc(-c2cn(C)c4ncnc(N)c24)c3F)n1
Procedure, shortened: as §1

nilotinib = compound: Cc1cn(-c2cc(NC(=O)c3ccc(C)c(Nc4nccc(-c5cccnc5)n4)c3)cc(C(F)(F)F)c2)cn1 [nilotinib]
Procedure, shortened: as §1

[6] = compound: Cc1nc(Nc2n[nH]c3c2CN(C(=O)N[C@H](CN(C)C)c2ccccc2)C3(C)C)c2sccc2n1
Procedure, shortened: as §1

dasatinib = compound: Cc1nc(Nc2ncc(C(=O)Nc3c(C)cccc3Cl)s2)cc(N2CCN(CCO)CC2)n1 [dasatinib]
Procedure, shortened: as §1

[7] = compound: Cc1ncc(-c2ccnc(Nc3ccc(S(C)(=O)=O)cc3)n2)n1C(C)C
Procedure, shortened: as §1

[8] = compound: Cn1cc(-c2ccc3c(c2)CCN3C(=O)Cc2cccc(C(F)(F)F)c2)c2c(N)ncnc21
Procedure, shortened: as §1

[9] = compound: Cn1cc(-c2ccc3nnc(C(F)(F)c4ccc5ncccc5c4)n3n2)cn1
Procedure, shortened: as §1

tipifarnib = compound: Cn1cncc1[C@@](N)(c1ccc(Cl)cc1)c1ccc2c(c1)c(-c1cccc(Cl)c1)cc(=O)n2C [tipifarnib]
Procedure, shortened: as §1

mubritinib = compound: FC(F)(F)c1ccc(/C=C/c2nc(COc3ccc(CCCCn4ccnn4)cc3)co2)cc1 [mubritinib]
Procedure, shortened: as §1

Measured: log2 fold change

NLE1 (UniProt Q9NVX2)
inactive: [1] 0.011 | crizotinib 0.02 | [2] 0.018 | [3] -0.077 | duvelisib 0.03 | gandotinib -0.006 | tozasertib 0.017 | [4] 0.004 | doramapimod -0.027 | ispinesib 0.088 | bafetinib -0.042 | [5] -0.007 | nilotinib 0.011 | [6] -0.06 | dasatinib -0.043 | [7] 0.043 | [8] 0.02 | [9] 0.017 | tipifarnib 0.016 | mubritinib 0.02

NONO (UniProt Q15233)
inactive: [1] -0.04 | crizotinib 0.007 | [2] -0.094 | [3] 0.28 | duvelisib -0.033 | gandotinib -0.038 | tozasertib 0.153 | [4] 0.055 | doramapimod 0.05 | ispinesib -0.18 | bafetinib 0.134 | [5] -0.106 | nilotinib -0.056 | [6] -0.283 | dasatinib 0 | [7] -0.267 | [8] -0.081 | [9] -0.1 | tipifarnib 0.063 | mubritinib -0.117

NIT1 (UniProt Q86X76)
inactive: [1] 0.023 | crizotinib 0.095 | [2] 0.046 | [3] -0.013 | duvelisib 0.042 | gandotinib -0.012 | tozasertib -0.024 | [4] -0.025 | doramapimod -0.042 | ispinesib 0 | bafetinib -0.01 | [5] -0.016 | nilotinib 0.023 | [6] -0.009 | dasatinib -0.018 | [7] -0.002 | [8] 0.037 | [9] -0.006 | tipifarnib -0.019 | mubritinib -0.043

NSMAF (UniProt Q92636)
inactive: [1] -0.003 | crizotinib -0.027 | [2] -0.027 | [3] 0 | duvelisib 0.09 | gandotinib 0.081 | tozasertib -0.007 | [4] 0.067 | doramapimod 0.041 | ispinesib -0.033 | bafetinib -0.051 | [5] 0.005 | nilotinib -0.031 | [6] -0.065 | dasatinib 0.005 | [7] 0.009 | [8] 0.016 | [9] -0.038 | tipifarnib -0.015 | mubritinib 0.055

NFYA (UniProt P23511)
inactive: [1] 0.148 | crizotinib -0.111 | [2] 0.153 | [3] -0.004 | duvelisib -0.055 | gandotinib 0.086 | tozasertib 0.012 | [4] 0.109 | doramapimod 0.069 | ispinesib 0.06 | bafetinib 0.08 | [5] -0.025 | nilotinib -0.012 | [6] 0.033 | dasatinib 0.047 | [7] -0.064 | [8] -0.054 | [9] -0.081 | tipifarnib -0.012 | mubritinib -0.017

NHLRC3 (UniProt Q5JS37)
inactive: [1] 0.002 | crizotinib 0.07 | [2] 0.02 | [3] -0.046 | duvelisib 0.083 | gandotinib -0.011 | tozasertib -0.106 | [4] -0.077 | doramapimod 0.035 | ispinesib 0.078 | bafetinib 0.031 | [5] 0.01 | nilotinib -0.049 | [6] -0.016 | dasatinib -0.03 | [7] -0.052 | [8] -0.143 | [9] -0.003 | tipifarnib 0.043 | mubritinib 0.127

NOMO1 (UniProt Q15155)
inactive: [1] -0.059 | crizotinib -0.106 | [2] -0.126 | [3] 0.086 | duvelisib 0.075 | gandotinib -0.089 | tozasertib 0 | [4] -0.014 | doramapimod 0.039 | ispinesib -0.188 | bafetinib 0.051 | [5] 0.058 | nilotinib 0.028 | [6] 0.046 | dasatinib 0.072 | [7] -0.05 | [8] -0.086 | [9] 0.222 | tipifarnib 0.079

NRIP3 (UniProt Q9NQ35)
inactive: [1] 0.055

NMRAL1 (UniProt Q9HBL8)
active: bafetinib 0.806 | nilotinib 1.29 | [9] 0.962
inactive: [1] 0.228 | crizotinib 0.469 | [2] 0.054 | [3] 0.04 | gandotinib -0.169 | [4] -0.009 | doramapimod 0.001 | ispinesib -0.103 | [5] -0.026 | [6] 0.024 | dasatinib -0.071 | [7] -0.018 | [8] 0.031 | tipifarnib -0.035 | mubritinib -0.145

NOP58 (UniProt Q9Y2X3)
inactive: [1] 0.006 | crizotinib 0.047 | [2] -0.061 | [3] 0.242 | gandotinib 0.121 | [4] -0.001 | doramapimod 0.098 | ispinesib 0.103 | bafetinib 0.146 | [5] -0.154 | nilotinib 0.03 | [6] -0.194 | dasatinib 0.266 | [7] -0.142 | [8] -0.194 | [9] -0.093 | tipifarnib 0.067 | mubritinib -0.071

NFXL1 (UniProt Q6ZNB6)
inactive: [1] -0.018 | crizotinib 0.082 | [2] -0.003 | [3] -0.057 | duvelisib 0.061 | gandotinib 0.074 | tozasertib 0.064 | [4] 0.019 | doramapimod -0.018 | ispinesib 0.032 | bafetinib -0.012 | [5] -0.006 | nilotinib -0.061 | [6] -0.007 | dasatinib 0.002 | [7] 0.043 | [8] 0 | [9] -0.017 | tipifarnib -0.004 | mubritinib -0.002

NLRC3 isoform 2 (UniProt Q7RTR2)
inactive: [1] 0.04 | crizotinib 0.179 | [2] 0.025 | [3] 0.529 | duvelisib 0.13 | [4] -0.241 | doramapimod -0.12 | ispinesib -0.256 | bafetinib -0.184 | nilotinib -0.231 | [6] 0.047 | dasatinib 0.05 | [7] -0.114 | [8] -0.116 | [9] 0.085 | tipifarnib 0.268 | mubritinib 0.055

NFIA isoform 4 (UniProt Q12857)
inactive: [1] -0.054 | crizotinib -0.062 | [2] -0.012 | [3] 0.035 | duvelisib 0.054 | gandotinib 0.039 | tozasertib 0.008 | [4] -0.014 | doramapimod 0.043 | ispinesib 0.041 | bafetinib -0.017 | [5] -0.078 | nilotinib 0.022 | [6] 0.04 | dasatinib 0.084 | [7] -0.078 | [8] -0.086 | [9] 0.074 | tipifarnib 0.046 | mubritinib -0.023

NPL (UniProt Q9BXD5)
inactive: [1] 0.033 | crizotinib -0.035 | [2] 0.025 | [3] 0.189 | duvelisib 0.014 | gandotinib -0.18 | tozasertib 0.124 | [4] 0.039 | doramapimod 0.067 | ispinesib 0.317 | bafetinib 0.085 | [5] -0.012 | nilotinib -0.056 | [6] -0.022 | dasatinib -0.012 | [7] 0.047 | [8] -0.153 | [9] 0.077 | tipifarnib -0.044 | mubritinib 0.145

NEMF (UniProt O60524)
inactive: [1] -0.039 | crizotinib 0.006 | [2] -0.445 | [3] 0.31 | duvelisib -0.234 | gandotinib 0.213 | tozasertib -0.007 | [4] 0.027 | doramapimod 0.295 | ispinesib -0.257 | bafetinib 0.271 | [5] -0.029 | nilotinib -0.1 | [6] 0.128 | dasatinib 0.072 | [7] -0.014 | [8] -0.246 | [9] -0.178 | tipifarnib 0.022 | mubritinib -0.079

NPTN (UniProt Q9Y639)
inactive: [1] 0.052 | crizotinib 0.115 | [2] 0.227 | [3] -0.051 | duvelisib 0.109 | gandotinib -0.144 | tozasertib -0.056 | [4] -0.034 | doramapimod -0.018 | ispinesib 0.179 | bafetinib -0.007 | [5] -0.173 | nilotinib 0.089 | [6] 0.006 | dasatinib -0.039 | [7] 0.009 | [8] 0.075 | [9] 0.014 | tipifarnib 0.052 | mubritinib 0.024

NEK9 (UniProt Q8TD19)
inactive: [1] 0.053 | crizotinib -0.072 | [2] 0.026 | [3] -0.008 | duvelisib 0.008 | gandotinib -0.024 | tozasertib 0 | [4] 0.003 | doramapimod 0.013 | ispinesib -0.035 | bafetinib -0.067 | [5] -0.004 | nilotinib -0.029 | [6] 0.002 | dasatinib -0.079 | [7] 0 | [8] 0.013 | [9] -0.009 | tipifarnib 0.014 | mubritinib -0.008
